For some assays here: Expression values are those of the mRNA of the gene that encodes the peptide; a gene is named only where it was looked up.
Columns and labels:
[1] = system: source genes (mRNA); test: Gene and exon expression of source genes, TCGA tumor samples compared with normal tissue samples (Lonsdale, 2013) (Table 17); set-up: species or system human; conditions: for Target coverage: over-expression category of source gene, BLCA: Bladder urothelial carcinoma (N = 408); for Target coverage: over-expression category of source gene, BRCA: Breast cancer (N = 1104), cutoff more than 2-fold above highest 75% percentile of high and medium risk normal tissue samples; for Target coverage: over-expression category of source gene, CHOL: Cholangiocarcinoma (N = 36); for Target coverage: over-expression category of source gene, READ: Colon and rectal adenocarcinoma (N = 167); for Target coverage: over-expression category of source gene, COAD: Colon and rectal adenocarcinoma (N = 462); for Target coverage: over-expression category of source gene, ESCA: Esophageal cancer (N = 185); for Target coverage: over-expression category of source gene, KICH: Kidney chromophobe (N = 66); for Target coverage: over-expression category of source gene, LGG: Lower grade glioma (N = 534); for Target coverage: over-expression category of source gene, LUAD: Lung adenocarcinoma (N = 517); for Target coverage: over-expression category of source gene, LUSC: Lung squamous cell carcinoma (N = 503); for Target coverage: over-expression category of source gene, DLBC: Lymphoid neoplasm diffuse large B-cell lymphoma (N = 48); for Target coverage: over-expression category of source gene, OV: Ovarian serous cystadenocarcinoma (N = 309); for Target coverage: over-expression category of source gene, PAAD: Pancreatic ductal adenocarcinoma (N = 179); for Target coverage: over-expression category of source gene, KIRP: Papillary kidney carcinoma (N = 291); for Target coverage: over-expression category of source gene, PRAD: Prostate adenocarcinoma (N = 498); for Target coverage: over-expression category of source gene, SKCM: Skin cutaneous melanoma (N = 473); for Target coverage: over-expression category of source gene, STAD: Stomach adenocarcinoma (N = 415); for Target coverage: over-expression category of source gene, UCEC: Uterine corpus endometrial carcinoma (N = 546)
[2] = system: HLA-A*02; test: Identification and relative LC-MS quantitation of HLA-A*02-presented tumor-associated peptides on tissue samples (presentation profiles, Tables 13A, 13B, 15, FIG. 1); set-up: species or system human; key to Presentation score NHL / Presentation score CLL / Presentation score BRCA / Presentation score AML / Presentation score GB / Presentation score NSCLC / Presentation score GBC_CCC / Presentation score UEC / Presentation score MEL / Presentation score OSCAR / Presentation score GC / Presentation score UBC / Presentation score OC / Presentation score RCC / Presentation score CRC / Presentation score PCA / Presentation score HCC / Presentation score PC / Presentation score SCLC: specifically presented on tumors (++++); very highly over-presented on tumors compared to a panel of normal tissues (+++); highly over-presented on tumors compared to a panel of normal tissues (++); over-presented on tumors compared to a panel of normal tissues (+); conditions: for Peptide Presentation on cancer entities: HLA-A*02-binding tumor-associated peptides
[3] = cutoff more than 2-fold above highest 75% percentile of normal tissue samples
[4] = Table 13A, cancer entities on which the peptide was found presented

Substance | Target coverage: over-expression category of source gene, BLCA [1, 3] | Target coverage: over-expression category of source gene, BRCA [1] | Target coverage: over-expression category of source gene, CHOL [1, 3] | Target coverage: over-expression category of source gene, READ [1, 3] | Target coverage: over-expression category of source gene, COAD [1, 3] | Target coverage: over-expression category of source gene, ESCA [1, 3] | Target coverage: over-expression category of source gene, KICH [1, 3] | Target coverage: over-expression category of source gene, LGG [1, 3] | Target coverage: over-expression category of source gene, LUAD [1, 3] | Target coverage: over-expression category of source gene, LUSC [1, 3] | Target coverage: over-expression category of source gene, DLBC [1, 3] | Target coverage: over-expression category of source gene, OV [1, 3] | Target coverage: over-expression category of source gene, PAAD [1, 3] | Target coverage: over-expression category of source gene, KIRP [1, 3] | Target coverage: over-expression category of source gene, PRAD [1, 3] | Target coverage: over-expression category of source gene, SKCM [1, 3] | Target coverage: over-expression category of source gene, STAD [1, 3] | Target coverage: over-expression category of source gene, UCEC [1, 3] | Peptide Presentation on cancer entities [2, 4] | further results
66: peptide found in AACS (gene looked up) (KLIFSVEAV; listed as Homo sapiens) [compound 66] | C (>=5% of tumors above the cutoff, but <20%) | B (>= 20% of tumors above the cutoff, but <50%) | B (>= 20% of tumors above the cutoff, but <50%) | A (>=50% of tumors above the cutoff) | A (>=50% of tumors above the cutoff) | A (>=50% of tumors above the cutoff) | B (>= 20% of tumors above the cutoff, but <50%) | C (>=5% of tumors above the cutoff, but <20%) | B (>= 20% of tumors above the cutoff, but <50%) | B (>= 20% of tumors above the cutoff, but <50%) | C (>=5% of tumors above the cutoff, but <20%) | B (>= 20% of tumors above the cutoff, but <50%) | B (>= 20% of tumors above the cutoff, but <50%) | C (>=5% of tumors above the cutoff, but <20%) | B (>= 20% of tumors above the cutoff, but <50%) | C (>=5% of tumors above the cutoff, but <20%) | B (>= 20% of tumors above the cutoff, but <50%) | B (>= 20% of tumors above the cutoff, but <50%) | NSCLC, SCLC, UEC, BRCA | Presentation score BRCA ([2]; HLA-A*02 peptides, breast cancer (N = 17) vs panel of normal tissues (N = 262)): ++++; Presentation score NSCLC ([2]; HLA-A*02 peptides, non-small cell lung cancer (N = 90) vs panel of normal tissues (N = 262)): ++++; Presentation score SCLC ([2]; HLA-A*02 peptides, small cell lung cancer (N = 19) vs panel of normal tissues (N = 262)): ++++; Presentation score UEC ([2]; HLA-A*02 peptides, uterine cancer (N = 15) vs panel of normal tissues (N = 262)): ++++; Peptide Presentation on cancer entities ([2]; Table 13B, presentation on additional cancer entities): OC, UBC, BRCA
89: peptide found in COG8 (gene looked up) (QLAPVFQRV; listed as Homo sapiens) [compound 89] | A (>=50% of tumors above the cutoff) | A (>=50% of tumors above the cutoff) | A (>=50% of tumors above the cutoff) | A (>=50% of tumors above the cutoff) | A (>=50% of tumors above the cutoff) | A (>=50% of tumors above the cutoff) | A (>=50% of tumors above the cutoff) | A (>=50% of tumors above the cutoff) | A (>=50% of tumors above the cutoff) | A (>=50% of tumors above the cutoff) | A (>=50% of tumors above the cutoff) | A (>=50% of tumors above the cutoff) | A (>=50% of tumors above the cutoff) | A (>=50% of tumors above the cutoff) | A (>=50% of tumors above the cutoff) | A (>=50% of tumors above the cutoff) | A (>=50% of tumors above the cutoff) | A (>=50% of tumors above the cutoff) | CLL, OC, NHL | Target coverage: over-expression category of source gene, LAML ([1]; Acute Myeloid Leukemia (N = 173), cutoff more than 2-fold above highest 75% percentile of normal tissue samples): A (>=50% of tumors above the cutoff); Target coverage: over-expression category of source gene, KIRC ([1]; Clear cell kidney carcinoma (N = 534), cutoff more than 2-fold above highest 75% percentile of normal tissue samples): A (>=50% of tumors above the cutoff); Target coverage: over-expression category of source gene, GBM ([1]; Glioblastoma multiforme (N = 169), cutoff more than 2-fold above highest 75% percentile of normal tissue samples): A (>=50% of tumors above the cutoff); Target coverage: over-expression category of source gene, LIHC ([1]; Liver hepatocellular carcinoma (N = 374), cutoff more than 2-fold above highest 75% percentile of normal tissue samples): A (>=50% of tumors above the cutoff); Presentation score CLL ([2]; HLA-A*02 peptides, chronic lymphocytic leukemia (N = 17) vs panel of normal tissues (N = 262)): ++++; Presentation score NHL ([2]; HLA-A*02 peptides, non-Hodgkin lymphoma (N = 18) vs panel of normal tissues (N = 262)): ++++; Presentation score OC ([2]; HLA-A*02 peptides, ovarian cancer (N = 20) vs panel of normal tissues (N = 262)): ++++

From patent US20170189504A1, “NOVEL PEPTIDES AND COMBINATION OF PEPTIDES FOR USE IN IMMUNOTHERAPY AGAINST VARIOUS CANCERS” (immatics biotechnologies GmbH, priority 2015, published 2017)
